Measured values taken from US12637499B2, “Adrenomedullin analog, method for producing the same, and pharmaceutical use thereof” (priority 2020, dated 2026).
Where two headings read alike, the source gives them in different places. Not every detail of the peptide structures is certain; ends, links or a residue may be inferred. Where a SMILES comes first, the peptide text is derived from it. Bridges are numbered along the chain shown (N, C = ends).

System: influenzavirus PR8 (A/PR/8/34 (H1N1))
Type: in vivo, mice
Settings: for Score of gross lesion examination of lung, left lung / Score of gross lesion examination of lung, right lung / Virus concentration in lung: day 5 after virus inoculation
[1] = 10 nmol/kg, * p<0.01 vs control
[2] = 100 nmol/kg, * p<0.01 vs control

## CC[C@H](C)[C@H](NC(=O)[C@H](CCC(N)=O)NC(=O)[C@H](Cc1c[nH]cn1)NC(=O)[C@H](C)NC(=O)[C@H](CC(C)C)NC(=O)[C@H](CCCCN)NC(=O)[C@H](CCC(N)=O)NC(=O)[C@@H](NC(=O)[C@@H](NC(=O)[C@@H]1CSSC[C@H](NC(=O)CNC(=O)[C@H](Cc2ccccc2)NC(=O)[C@@H](N)CO)C(=O)N[C@@H](CCCNC(=N)N)C(=O)N[C@@H](Cc2ccccc2)C(=O)NCC(=O)N[C@@H]([C@@H](C)O)C(=O)N1)[C@@H](C)O)C(C)C)C(=O)N[C@@H](Cc1ccc(O)cc1)C(=O)N[C@@H](CCC(N)=O)C(=O)N[C@@H](Cc1ccccc1)C(=O)N[C@H](C(=O)N[C@@H](CC(=O)O)C(=O)N[C@@H](CCCCN)C(=O)N[C@@H](CC(=O)O)C(=O)N[C@@H](CCCCN)C(=O)N[C@@H](CC(=O)O)C(=O)N[C@@H](CC(N)=O)C(=O)N[C@H](C(=O)N[C@@H](C)C(=O)N1CCC[C@H]1C(=O)N[C@@H](C)C(=O)N[C@@H](CO)C(=O)N[C@@H](CCCCN)C(=O)N[C@H](C(=O)N[C@@H](CO)C(=O)N1CCC[C@H]1C(=O)N[C@@H](CCC(N)=O)C(=O)NCC(=O)N[C@@H](Cc1ccc(O)cc1)C(N)=O)[C@@H](C)CC)C(C)C)[C@@H](C)O [[Ala-44]hAM(13-52), SFGCRFGTCTVQKLAHQIYQFTDKDKDNVAPASKISPQGY-CONH2] (H-SFGCRFGTCTVQKLAHQIYQFTDKDKDNVAPASKISPQGY-NH2; disulfide 4-9; N-terminus assumed)
10 nmol/kg, tail vein, 1 day before inoculation, mean ± standard error
  General condition score: 0.0 ± 0.0
10 nmol/kg, day 0 after inoculation
  General condition score: 0.0 ± 0.0
10 nmol/kg, day 1 after inoculation
  General condition score: 0.0 ± 0.0
10 nmol/kg, day 2 after inoculation
  General condition score: 0.2 ± 0.0
10 nmol/kg, day 3 after inoculation
  General condition score: 0.5 ± 0.0
10 nmol/kg, day 4 after inoculation
  General condition score: 0.8 ± 0.0
10 nmol/kg, day 5 after inoculation
  General condition score: 1.0 ± 0.0
[1]
  Score of gross lesion examination of lung, left lung: 2.8 ± 0.2*
  Score of gross lesion examination of lung, right lung: 2.9 ± 0.1*
  Virus concentration in lung: 53.0 ± 3.0* ×10^4 PFU/right lung
100 nmol/kg, tail vein, 1 day before inoculation, mean ± standard error
  General condition score: 0.0 ± 0.0
100 nmol/kg, day 0 after inoculation
  General condition score: 0.0 ± 0.0
100 nmol/kg, day 1 after inoculation
  General condition score: 0.0 ± 0.0
100 nmol/kg, day 2 after inoculation, * p<0.01 vs control
  General condition score: 0.1 ± 0.0*
100 nmol/kg, day 3 after inoculation
  General condition score: 0.5 ± 0.0
100 nmol/kg, day 4 after inoculation
  General condition score: 0.8 ± 0.0
100 nmol/kg, day 5 after inoculation
  General condition score: 1.0 ± 0.0
[2]
  Score of gross lesion examination of lung, left lung: 2.6 ± 0.2*
  Score of gross lesion examination of lung, right lung: 2.5 ± 0.2*
  Virus concentration in lung: 43.3 ± 4.6* ×10^4 PFU/right lung
High dose (100 nmol/kg) and low dose (10 nmol/kg), both groups
  scores of histopathological examination (left lung): no significant difference from the control group
